Results are given in words; binding and its absence hold for the method and conditions named. In cells and extracts the contact can be indirect. Some results given as binding are weak or reduced against the parent protein; the word gives no strength.
Columns and labels:
[1] = target: eGFP-C2-ICD (human) (UniProt P35613); test: co-IP; eGFP-C2-ICD (ICD-GFP) overexpressed in SMMC-7721 cells for 36 h; lysate on coupling resin pre-bound with GFP antibody; Western blot
[2] = target: GST-CD147-ICD (human) (UniProt P35613); test: pull-down; 20 ug GST-CD147-ICD or GST pre-bound to coupling resin; lysate of 1 x 10^7 cells (cell line not given); eluate analysed by Western blot for FBXO22; only the target purified

By UniProt entry, the sequences of proteins in these tests, tags left out. Residues count along the entry.
UniProt P35613, residues 346-385: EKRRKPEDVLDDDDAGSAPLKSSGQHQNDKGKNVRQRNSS

How did the binding [1] turn out when FBXO22 (from UniProt Q8NEZ5-1 1-403) was run?
Its binding is “binds”.

And the binding [2]?
The binding was “binds”.

Source: paper PMC5297841
